Results as given in PMC12513489.
Results are given in words; binding and its absence hold for the method and conditions named. In cells and extracts the contact can be indirect. Here binding means that the protein was enriched with, or labelled near, the bait; the list need not be complete.

Chains of the proteins cited; added tags and fusions are not shown. Residues count along the entry.
UniProt P08113, residues 22-802: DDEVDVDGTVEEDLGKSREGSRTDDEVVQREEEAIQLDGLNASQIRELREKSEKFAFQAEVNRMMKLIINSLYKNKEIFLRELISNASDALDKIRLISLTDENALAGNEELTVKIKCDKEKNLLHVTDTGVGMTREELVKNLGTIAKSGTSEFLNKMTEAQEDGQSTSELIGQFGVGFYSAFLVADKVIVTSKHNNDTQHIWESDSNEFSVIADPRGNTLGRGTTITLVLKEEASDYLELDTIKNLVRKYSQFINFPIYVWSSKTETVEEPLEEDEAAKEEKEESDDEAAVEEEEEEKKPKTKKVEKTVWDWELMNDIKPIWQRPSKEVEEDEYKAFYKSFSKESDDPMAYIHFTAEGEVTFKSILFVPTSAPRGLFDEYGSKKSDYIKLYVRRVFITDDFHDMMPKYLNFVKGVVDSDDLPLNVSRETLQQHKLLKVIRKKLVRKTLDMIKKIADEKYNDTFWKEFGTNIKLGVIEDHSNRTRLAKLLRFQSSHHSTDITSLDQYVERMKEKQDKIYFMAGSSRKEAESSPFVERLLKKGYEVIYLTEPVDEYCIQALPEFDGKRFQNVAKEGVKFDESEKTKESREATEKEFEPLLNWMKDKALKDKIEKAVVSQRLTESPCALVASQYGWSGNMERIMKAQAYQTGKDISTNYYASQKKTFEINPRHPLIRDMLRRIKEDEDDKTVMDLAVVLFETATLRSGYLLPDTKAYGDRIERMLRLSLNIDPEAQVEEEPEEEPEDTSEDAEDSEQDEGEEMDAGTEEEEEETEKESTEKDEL
UniProt P07356: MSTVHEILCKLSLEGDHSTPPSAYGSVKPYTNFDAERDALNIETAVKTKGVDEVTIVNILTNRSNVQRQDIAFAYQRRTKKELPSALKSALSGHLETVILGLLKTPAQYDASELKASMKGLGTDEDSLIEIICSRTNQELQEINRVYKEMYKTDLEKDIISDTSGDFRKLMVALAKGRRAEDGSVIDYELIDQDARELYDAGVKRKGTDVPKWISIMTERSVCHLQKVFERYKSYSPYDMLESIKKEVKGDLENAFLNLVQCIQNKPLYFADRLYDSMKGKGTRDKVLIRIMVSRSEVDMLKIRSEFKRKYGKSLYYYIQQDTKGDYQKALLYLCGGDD
UniProt P46935: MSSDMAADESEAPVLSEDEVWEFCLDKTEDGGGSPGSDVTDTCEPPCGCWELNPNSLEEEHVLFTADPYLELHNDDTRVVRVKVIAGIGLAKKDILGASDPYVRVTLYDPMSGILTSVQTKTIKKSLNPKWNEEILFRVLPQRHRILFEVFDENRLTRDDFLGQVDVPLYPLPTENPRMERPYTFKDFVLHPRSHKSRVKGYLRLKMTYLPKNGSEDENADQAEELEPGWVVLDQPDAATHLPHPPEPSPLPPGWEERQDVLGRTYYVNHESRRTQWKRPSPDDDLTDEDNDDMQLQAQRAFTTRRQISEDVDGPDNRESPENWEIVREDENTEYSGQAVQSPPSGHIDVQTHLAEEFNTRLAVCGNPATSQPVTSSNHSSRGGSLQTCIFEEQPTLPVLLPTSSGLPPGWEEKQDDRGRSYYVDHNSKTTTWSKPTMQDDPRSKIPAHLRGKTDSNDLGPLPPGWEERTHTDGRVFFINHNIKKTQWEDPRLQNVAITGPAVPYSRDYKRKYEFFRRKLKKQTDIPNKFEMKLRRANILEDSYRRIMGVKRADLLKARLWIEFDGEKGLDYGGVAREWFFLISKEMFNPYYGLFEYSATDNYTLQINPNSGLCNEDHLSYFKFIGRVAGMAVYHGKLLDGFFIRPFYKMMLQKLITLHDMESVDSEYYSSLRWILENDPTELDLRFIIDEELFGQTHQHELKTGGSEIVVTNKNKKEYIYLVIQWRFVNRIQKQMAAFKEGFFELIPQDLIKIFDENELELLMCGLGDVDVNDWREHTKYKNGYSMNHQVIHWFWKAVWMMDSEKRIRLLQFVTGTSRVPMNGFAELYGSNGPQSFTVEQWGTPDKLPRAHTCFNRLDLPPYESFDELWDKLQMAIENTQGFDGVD

Target: glucose-regulated protein 94 (GRP94) (mouse (endogenous in cardiomyocytes)) (UniProt P08113)
Test: affinity purification with mass spectrometry; co-IP with anti-GRP94 antibody on Protein A/G magnetic beads from lysate of cardiomyocytes treated with hypoxia (12 hours) or tunicamycin (15 mg/L, 12 hours); SDS-PAGE, in-gel trypsin digestion, LC-MS/MS

Substance: Anxa2 (from UniProt P07356 1-339)
- binding: binds

Substance: NEDD4 (from UniProt P46935 1-887)
- binding: binds
